The values that follow come from PubChem BioAssay AID2685 (National Center for Advancing Translational Sciences (NCATS), 2010).

The assay in a line: qHTS Assay for Lipid Storage Modulators in Drosophila S3 Cells.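 For cell number change: cells counted by Cell Tracker Red CMTPX staining in the red channel.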 The settings on record: BODIPY lipid droplet fluorescence, 18-24 h; for cell number change: measured here: cell count max response, cells fed with added oleic acid. The method in brief:
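Drosophila S3 cells loaded with oleic acid (400 uM, as added) and compounds at several concentrations; lipid droplets imaged by 488-nm laser-scanning cytometry, 500–530 nm intensity and object ratio to cell channel. Percent activity normalized to 20 uM Triacsin C.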
Background: In qHTS, concentration-response curves come from the screen itself.

The mark [1] stands for this setting: measured here: cell number channel AC50, cells fed with added oleic acid.
Setting [2] is: measured here: lipid fluorescence (Fed channel) AC50, cells fed with added oleic acid.

SMILES strings stand for the structures. The list shows a part of the results. These are further read-outs of the screen, such as a control signal, another cell line or another target. No call is given for them. The list favours compounds with an active or inconclusive main result. Potencies come from curve fits of mixed quality, noted in brackets.

As to `O=S(=O)(c1cccc(F)c1)N1CCN(C(=S)NCc2ccccc2)CC1`, the cell number change is -35.5%. Under setting [1], the AC50 is 25.9 µM [falling, single point].

Regarding `COCCCN(CC(=O)Nc1ccc(N2CCOCC2)cc1)S(=O)(=O)c1ccccc1`, the cell number change is 18.4%.

In the case of `Cc1csc(NC(=O)CSc2nnc(-c3ccccc3)o2)n1`, the cell number change was -0.817%.

Consider `N#Cc1ncc(Cc2ccccc2)nc1C#N`, for which the AC50 under setting [2] was 6.51 µM [falling, partial curve].

Take `CN(/N=C/c1cc(Br)cc(Br)c1O)c1cccc(C(F)(F)F)n1`: the cell number change was determined as 14.9%. For the same compound, the AC50 under setting [2] is 29.1 µM [rising, single point].

As for `CC(C)CCNC(=O)c1nn(Cc2ccccc2)c(=O)c2ccccc12`, the cell number change came out at 26.1%.

With `O=C(CCl)NCc1cc(-c2ccc(Cl)cc2)no1`, the cell number change was -67.9%. Further, under setting [1], the AC50 is 1.84 µM [falling, partial curve, poor fit]. The AC50 under setting [2] is 1.64 µM [falling, partial curve].

Take `COc1ccc(CC(=O)NCCc2ccc(S(N)(=O)=O)cc2)cc1`: the cell number change is -6.88%. Further, the AC50 under setting [2] was 0.164 µM [rising, full curve, poor fit].

On to `O=C(Nc1ccccc1-c1nnc(SCc2ccccc2Cl)o1)c1ccccc1`, for which the cell number change was 9.48%. In addition, the AC50 under setting [2] is 29.1 µM [rising, single point].

Regarding `O=C(CCC1CCCC1)NCc1ccccn1`, the cell number change stood at 12.3%. Besides, the AC50 under setting [2] was 14.6 µM [falling, partial curve].

Turning to `COc1cc(-c2nnc(CSc3nnc(N)s3)o2)cc(OC)c1OC`, the cell number change was found to be 27.7%. For the same compound, the AC50 under setting [2] was 6.51 µM [rising, partial curve].

With `Cc1ccc(-c2nnn(CC(=O)N(Cc3ccccc3)C(C(=O)NC3CCCC3)c3ccncc3)n2)o1` (stereo not given), the cell number change was found to be 13.3%. For the same compound, the AC50 under setting [1] is 6.51 µM [rising, single point]. The AC50 under setting [2] was 5.8 µM [rising, full curve].

On to `COc1ccc(NC(=O)COC(=O)/C=C/c2ccccc2[N+](=O)[O-])cc1`, for which the cell number change was 13.8%. The AC50 under setting [1] is 0.103 µM [rising, full curve, poor fit].

For the compound `COc1ccccc1OCCn1cc(/C=N/n2cnnc2)c2ccccc21`, the cell number change is -12.9%. Besides, the AC50 under setting [2] was 6.51 µM [rising, single point].

`CSc1cccc(NC(=O)Cc2ccccc2[N+](=O)[O-])c1`: the cell number change was -2.23%. Besides, under setting [2], the AC50 is 0.517 µM [falling, single point].

On to `COc1cccc(NC(C)C(=O)N2CC(C)OC(C)C2)c1` (stereo not given), for which the cell number change turned out to be 7.97%. Moreover, the AC50 under setting [2] is 8.2 µM [rising, partial curve, poor fit].

As to `COc1cccc2oc(-c3ccco3)cc(=O)c12`, the cell number change came out at 6.85%. In addition, the AC50 under setting [2] is 2.91 µM [rising, partial curve].

Turning to `COC(=O)C1=C(N)Oc2cc(C)n(CCCn3ccnc3)c(=O)c2C1c1cccc(Cl)c1` (stereo not given), the cell number change came out at 29.2%. For the same compound, the AC50 under setting [2] was 0.58 µM [rising, partial curve].

Consider `CC(C)(C)NC(=O)C(c1ccc(O)cc1)N(Cc1ccco1)C(=O)Cn1nnc(-c2cccs2)n1` (stereo not given), for which the cell number change is -11.8%. Also, the AC50 under setting [2] was 32.6 µM [falling, single point].

For `COc1ccc(CNC(=O)[C@@H](NC(=O)C2CCN(S(=O)(=O)c3ccc(C)cc3)CC2)C(C)C)cc1OC`, the cell number change is -20.5%. Under setting [2], the AC50 is 29.1 µM [falling, single point].

`COc1ccc(CNC(=O)Cn2nnc(-c3ccc(NC(=O)C4CCCCC4)cc3)n2)cc1`: the cell number change is -11.8%. The AC50 under setting [2] is 10.3 µM [falling, partial curve].

For `O=C1NCCCC1C(=O)Nc1ccccc1C(F)(F)F` (stereo not given), the cell number change was -44.5%. The AC50 under setting [1] is 8.2 µM [falling, partial curve].

In the case of `O=c1c(C(c2nnnn2C2CCCCC2)N2CCCCC2)coc2ccc(Cl)cc12` (stereo not given), the cell number change was -11.3%.

For the compound `CCOc1ccc(NC(=O)CSc2nc3[nH]ncc3c(=O)n2-c2ccccc2OC)cc1`, the cell number change worked out at 16.5%. In addition, the AC50 under setting [2] is 2.06 µM [rising, partial curve].

For `CNC(=O)c1[nH]cnc1C(=O)Nc1cccc(OC)c1`, the cell number change was found to be 1.72%.

`O=[N+]([O-])c1nn(-c2ccc3c(c2)OCCO3)n(O)c1=NCc1ccccc1Cl`: the cell number change is -19.7%.

As to `CCc1nc(N2CCN(C(=O)CCl)CC2)c2c3c(sc2n1)CC(C)CC3` (stereo not given), the cell number change was -51.7%. Also, the half-maximal activity concentration (AC50) under setting [1] is 6.51 µM [falling, partial curve].

As for `Cc1ccccc1NC(=O)C1CCCN(S(=O)(=O)c2c(C)noc2C)C1` (stereo not given), the cell number change is -26.6%. Further, under setting [2], the AC50 was 1.16 µM [falling, full curve, poor fit].

In the case of `CCOc1ccc(S(=O)(=O)NCCC(=O)NCC2CCCO2)cc1` (stereo not given), the cell number change was 1.17%. Besides, the AC50 under setting [2] was 3.66 µM [rising, single point].

In the case of `c1coc(CSSCc2ccco2)c1`, the cell number change is -27.2%. Also, the AC50 under setting [1] is 4.11 µM [falling, single point]. Further, under setting [2], the AC50 is 6.51 µM [falling, single point].

Regarding `C/C(=N/NS(=O)(=O)c1cccc([N+](=O)[O-])c1)c1ccc2c(c1)OCO2`, the cell number change worked out at 26.7%. In addition, the AC50 under setting [2] was 29.1 µM [rising, single point].

With `Cn1c(N2CCN(C(=O)C34CC5CC(CC(C5)C3)C4)CC2)nc2ccccc21`, the cell number change was -0.992%. Besides, the AC50 under setting [2] was 8.2 µM [falling, partial curve, poor fit].

As to `O=C(CSc1n[nH]c(-c2ccco2)n1)Nc1ccccc1Cl`, the cell number change is -26.4%. For the same compound, under setting [2], the AC50 was 29.1 µM [rising, single point].

Regarding `CCOc1ccc(CCNC(=O)CN2C(=O)c3cccnc3Oc3ccc(Cl)cc32)cc1`, the cell number change is -25%. Further, the AC50 under setting [2] is 11.6 µM [falling, partial curve].

For `O=C(Nc1nccs1)c1ccc2c(c1)OCO2`, the cell number change turned out to be 38%. For the same compound, under setting [1], the AC50 is 9.2 µM [rising, partial curve, poor fit]. The AC50 under setting [2] is 4.61 µM [falling, single point].

`CC(C)CC[n+]1ccn(C2=C([O-])c3ccccc3C(=O)/C2=N\S(=O)(=O)c2ccccc2)c1`: the cell number change came to 16.2%. Also, the AC50 under setting [1] is 0.00461 µM [rising, full curve, poor fit].

Consider `CCCNC(=O)COC(=O)c1ccc(S(=O)(=O)N2CCCC2)cc1`, for which the cell number change came out at 93%.

On to `Oc1ccc(/C=N/Nc2ccc(C(F)(F)F)cn2)c(O)c1`, for which the cell number change was -40.8%. In addition, the AC50 under setting [1] was 18.4 µM [falling, single point]. Also, the AC50 under setting [2] was 29.1 µM [falling, single point].

On to `CN(C)/C(=N\S(=O)(=O)c1ccccc1)c1ccc([N+](=O)[O-])cc1`, for which the cell number change was determined as 24.9%. Besides, the AC50 under setting [2] is 0.259 µM [rising, full curve, poor fit].

Turning to `COc1ccc(NC(=O)C2CCC(=O)N2C(=O)OCc2ccccc2)cc1` (stereo not given), the cell number change is -8.87%.

As for `COc1ccc(CNCC(=O)Nc2cccc(S(N)(=O)=O)c2)cc1`, the cell number change amounted to 4.04%. Moreover, the AC50 under setting [1] was 0.146 µM [falling, full curve, poor fit]. Further, under setting [2], the AC50 was 0.146 µM [falling, full curve, poor fit].

Turning to `Cn1cc(C(=O)c2ccc(F)cc2)cc1-c1nc2ccccc2n1C`, the AC50 under setting [1] is 6.51 µM [rising, single point] and the AC50 under setting [2] is 2.91 µM [rising, partial curve].

In the case of `CCOc1ccc2ccccc2c1C1NC(=O)NC(C)=C1C(=O)OCCOC` (stereo not given), the cell number change turned out to be 7.21%. Under setting [2], the AC50 is 29.1 µM [rising, single point].

As to `CN(c1cccc(Cl)c1)S(=O)(=O)c1cccc(C(=O)NCc2ccncc2)c1`, the cell number change is -0.323%. Also, under setting [2], the AC50 is 6.51 µM [rising, single point].

`COc1ccc(N(C)S(=O)(=O)c2cccc3cccnc23)c(OC)c1`: the cell number change is -18.7%.

With `CC(C)(C)c1ccc(-c2csc(NNC3=NCCCCC3)n2)cc1`, the cell number change is -92.2%. The AC50 under setting [1] was 14.6 µM [falling, partial curve, poor fit].

For the compound `COc1ccc(-c2cc(=O)oc3cc(OC(=O)C4CCCCC4)c(Cl)cc23)cc1`, the cell number change is 4.1%. In addition, the AC50 under setting [2] was 3.66 µM [falling, partial curve].

Take `CC(C)C(O)(c1ccccc1)C(CN1CCOCC1)c1ccccc1` (stereo not given): the cell number change is -41.4%. Besides, the half-maximal activity concentration (AC50) under setting [1] is 16.4 µM [falling, single point]. In addition, the AC50 under setting [2] is 13 µM [falling, partial curve].

`CCOC(=O)c1ccc(N2C(=O)C(CC(N)=O)N(NC(=O)c3cccc(F)c3)C2=S)cc1` (stereo not given): the cell number change was -11.1%. For the same compound, the AC50 under setting [2] was 29.1 µM [falling, single point].

`O=C(Nc1cnn(C23CC4CC(CC(C4)C2)C3)c1)c1cnn2c(C(F)(F)F)cc(-c3ccco3)nc12`: the cell number change was -20.1%. Besides, the AC50 under setting [1] was 5.8 µM [falling, partial curve]. The AC50 under setting [2] was 2.31 µM [falling, full curve].

Turning to `O=c1c2cccnc2[nH]c(=S)n1CCCN1CCN(c2ccccc2F)CC1`, the cell number change worked out at 19.1%. In addition, the AC50 under setting [2] was 6.51 µM [rising, single point].

Turning to `CC(C)CC(=O)NC(=S)Nc1ccc(S(=O)(=O)N2CCCC2)cc1`, the cell number change is -18.7%. The AC50 under setting [2] was 29.1 µM [falling, single point].

With `Cc1ccc(S(=O)(=O)NC(=NCC(=O)O)c2ccccc2)cc1`, the cell number change was -26%. For the same compound, the AC50 under setting [2] was 0.164 µM [falling, full curve, poor fit].

Turning to `O=C(Nc1nc2ccccc2[nH]1)C1CCN(C(=O)c2ccc(F)cc2)CC1`, the cell number change was 28%. For the same compound, the AC50 under setting [2] was 0.92 µM [rising, full curve, poor fit].

`O=C(NCc1ccncc1)c1ccc(S(=O)(=O)Nc2ccccc2)cc1`: the cell number change was determined as 8.38%. For the same compound, the AC50 under setting [2] was 0.146 µM [falling, full curve, poor fit].

Regarding `Cc1ccc(NC(=O)COc2ccccc2C(=O)NCCc2ccccc2)cc1`, the cell number change was -22.8%. Under setting [2], the AC50 was 29.1 µM [falling, single point].

Regarding `COc1cc2[nH]c(=O)n(CCCCCC(=O)N3CCN(c4ccccc4)CC3)c(=O)c2cc1OC`, the AC50 under setting [2] is 4.61 µM [rising, single point].

With `O=C(c1ccc(N2CCCC2=O)cc1)N1CCN(c2cccc(C(F)(F)F)c2)CC1`, the cell number change was -33.7%. The AC50 under setting [1] is 29.1 µM [falling, single point].

As to `C=CCn1c(Cc2ccccc2)nnc1SCc1nc2ccccc2c(=O)[nH]1`, the cell number change was -6.72%. Moreover, the AC50 under setting [1] is 6.51 µM [rising, single point].

By AC50 is commonly meant the concentration giving half of the maximal activity seen. Read a low AC50 as greater potency.
